Taken from: PubChem BioAssay AID602196 (INSERM, 2012)
Shown is a random part of about 23,000 reagents. In the full data, 455 (2%) got an active call. 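Active includes both protection and sensitisation; some change values fall well beyond the stated -50 to +50 range.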 Entries without a mark were called inactive. Not all columns of the deposit are shown. The record does not give: the amount of reagent.

Purpose: 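Modifiers of cisplatin sensitivity in A549 cells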
Cells: human A549 lung cancer cells
Reagent: siRNA pair against human genes
Duration: 48 h transfection before cisplatin; time from cisplatin to read-out not stated
Challenge: cisplatin at a dose killing half of control-siRNA cells; exact dose and duration not given
Measured: 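Shift in cisplatin death relative to control siRNA, from -50 (all cells die) to +50 (no cells die); siRNAs harmful on their own scored 0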
Direction: two-siRNA summed score (-2 to +2): higher = both siRNAs protect from cisplatin killing; -2 means both sensitise
Rule for the call: 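siRNAs harmful alone (LDH or WST-1) get 0; others get +1 for less and -1 for more cisplatin killing; genes are active when the two siRNAs give the same sign, summing to ±2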
Calls: active = both siRNAs shift cisplatin killing the same way; inactive = no consistent shift, or siRNA harmful alone

target gene	two-siRNA summed score (-2 to +2)
STOM	1
OR4C46	0
C1orf87	0
TRHDE	-1
BTLA	0
RAET1G	0
OR8D1	0
DUSP7	-1
WASF3	0
bA395L14.13 (retired record)	0
LINC01566	0
GUCD1	-1
LINC00701	0
LOC122038	0
CST5	0
MARCHF6	0
CORIN	-1
LOC341912	0
LOC440959	0
SLIT1	1
ST6GALNAC1	0
LOC390594	0
SULT1B1	0
FRMD6-AS1	2 (active)
LOC441682	0
LOC441137	2 (active)
WSCD2	0
TUB	0
OR6K3	1
OSTC	0
ZNF549	0
CACNA1S	-1
DLEU2	1
SMC1B	-1
TENM1	1
CFAP91	0
UNC13D	0
LRGUK	0
ZCRB1	0
LOC440516	0
LOC150928	0
LOC388822	0
FGF7	0
LOC388716	0
DIAPH3	0
GABRQ	0
HPCAL1	0
RPL19	0
LOC151273	0
TAS2R10	0
GPR143	0
TGFB1I1	0
LOC441429	1
LOC130063	0
VAMP8	0
COX18	0
NEDD4	0

Reformatted: entries from further up
RPL19 — two-siRNA summed score (-2 to +2) = 0
LOC151273 — two-siRNA summed score (-2 to +2) = 0
TAS2R10 — two-siRNA summed score (-2 to +2) = 0
GPR143 — two-siRNA summed score (-2 to +2) = 0
TGFB1I1 — two-siRNA summed score (-2 to +2) = 0
